# Primary screen of a compound library

By UniProt entry, the sequences of proteins in these tests, tags left out. Residues count along the entry.
UniProt Q4DA54, 1-478: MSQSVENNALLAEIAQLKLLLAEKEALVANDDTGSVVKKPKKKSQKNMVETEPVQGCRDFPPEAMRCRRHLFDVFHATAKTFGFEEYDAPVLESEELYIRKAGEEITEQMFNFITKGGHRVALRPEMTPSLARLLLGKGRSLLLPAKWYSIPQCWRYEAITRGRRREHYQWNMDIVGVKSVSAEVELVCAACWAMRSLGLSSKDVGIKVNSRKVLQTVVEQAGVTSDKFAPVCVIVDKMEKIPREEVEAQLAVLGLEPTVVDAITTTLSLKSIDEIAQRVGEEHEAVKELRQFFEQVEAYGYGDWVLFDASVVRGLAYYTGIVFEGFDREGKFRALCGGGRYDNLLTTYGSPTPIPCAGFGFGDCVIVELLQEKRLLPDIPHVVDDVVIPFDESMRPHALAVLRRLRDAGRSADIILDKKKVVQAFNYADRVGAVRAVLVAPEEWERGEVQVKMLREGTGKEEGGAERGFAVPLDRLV
UniProt P9WPC5, whole entry: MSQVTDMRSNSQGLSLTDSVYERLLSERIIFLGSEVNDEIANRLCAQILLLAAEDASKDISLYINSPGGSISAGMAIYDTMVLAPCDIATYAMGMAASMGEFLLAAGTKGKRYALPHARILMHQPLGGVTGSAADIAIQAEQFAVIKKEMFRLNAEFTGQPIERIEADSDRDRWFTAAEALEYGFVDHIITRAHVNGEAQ
UniProt P9WPC3, whole entry partner: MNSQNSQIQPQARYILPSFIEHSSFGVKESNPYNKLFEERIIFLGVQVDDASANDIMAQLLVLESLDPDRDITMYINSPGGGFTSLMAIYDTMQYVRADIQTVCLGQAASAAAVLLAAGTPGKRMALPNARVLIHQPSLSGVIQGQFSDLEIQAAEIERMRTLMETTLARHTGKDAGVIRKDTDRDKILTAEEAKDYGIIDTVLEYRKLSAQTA
UniProt Q8IDJ8, 1-583: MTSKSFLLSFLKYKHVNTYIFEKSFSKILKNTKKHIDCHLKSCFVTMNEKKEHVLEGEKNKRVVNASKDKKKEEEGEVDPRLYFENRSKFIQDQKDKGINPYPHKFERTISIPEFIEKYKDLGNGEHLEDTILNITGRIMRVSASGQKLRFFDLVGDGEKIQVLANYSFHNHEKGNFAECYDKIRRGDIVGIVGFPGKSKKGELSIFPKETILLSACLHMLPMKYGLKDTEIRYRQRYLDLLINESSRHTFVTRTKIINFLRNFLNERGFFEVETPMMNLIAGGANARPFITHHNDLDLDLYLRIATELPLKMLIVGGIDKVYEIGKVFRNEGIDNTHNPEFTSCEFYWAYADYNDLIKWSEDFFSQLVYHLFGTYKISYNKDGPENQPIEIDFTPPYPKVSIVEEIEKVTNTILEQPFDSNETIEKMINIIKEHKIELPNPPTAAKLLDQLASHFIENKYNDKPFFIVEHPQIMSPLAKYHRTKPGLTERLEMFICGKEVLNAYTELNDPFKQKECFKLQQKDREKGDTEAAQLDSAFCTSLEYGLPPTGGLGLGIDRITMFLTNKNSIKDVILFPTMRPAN

Results are given as percent effect. How 0% and 100% were set is not recorded. Most values in the screen are low, and negative values occur. The compounds are a random part of those screened. A dash means the value is not listed here; it may have been measured.

Leishmania in macrophages: 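Cell assay of Leishmania donovani living inside macrophages; the read-out is not stated. Compounds at 30 µM. Direction is inferred from retests: higher values go with stronger inhibition. About 69,000 compounds were tested under these conditions; 1.5% (about 1,000) showed 50% or more at least once.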
TcHisRS: 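Histidine-tRNA ligase, Trypanosoma cruzi CL Brener (UniProt Q4DA54). Enzyme assay of histidyl-tRNA synthetase; the read-out is not stated. Compounds at 30 µM. The record gives no direction; compounds that gave an IC50 in retests scored well above the rest, so higher reads as stronger inhibition. Size under these conditions: about 69,000 compounds, about 31 of them at 50% or above in at least one test.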
ClpP1P2: 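ClpP1P2, Mycobacterium tuberculosis (UniProt P9WPC5 and UniProt P9WPC3). Protease assay of ClpP1P2, read by the AMC dye that it sets free. Compounds at 50 µM. Higher reads as stronger inhibition, judged from the few compounds that gave an IC50. Most other retested compounds had strongly negative values. Size under these conditions: about 69,000 compounds, about 10 of them at 50% or above in at least one test.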
Toxoplasma: 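Assay of Toxoplasma gondii numbers, read through their beta-galactosidase reporter with a colour substrate. Compounds at 10 µM. Higher reads as fewer parasites (inferred from which compounds were picked for retests). Of about 67,000 compounds tested this way, about 260 (0.38%) reached 50% or more in at least one test.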
PfKRS1: 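Lysine-tRNA ligase, Plasmodium falciparum 3D7 (UniProt Q8IDJ8). Enzyme assay of the cytosolic lysyl-tRNA synthetase in 384-well plates, read by luminescence. Compounds at 30 µM. Higher reads as stronger inhibition, judged from the few compounds that gave an IC50. About 69,000 compounds were tested under these conditions; 0.071% (about 49) showed 50% or more at least once.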

* Cc1nn(C)c(C)c1CNC(=O)CCn1ncc2c(Cl)cccc21 | Leishmania in macrophages: -28.96%; TcHisRS: 6.087%; ClpP1P2: -16.07%; Toxoplasma: -3.434%; PfKRS1: 2.292%
* [H][C@@]12COC[C@@H](C(=O)N3CCOCC3)[C@]1([H])CN(C1CCCCC1)C2 | Leishmania in macrophages: 39.59%; Toxoplasma: -25.88%
* Cc1cnn(CCNCC(=O)NC2(C#N)CCCC2)c1 | Leishmania in macrophages: 13.97%; TcHisRS: 3.226%; ClpP1P2: 12.42%; Toxoplasma: 2.841%; PfKRS1: 0.9142%
* Cc1cc(S(=O)(=O)NC(=O)CCc2cccnc2)c(C)s1 | Leishmania in macrophages: 10.67%; TcHisRS: 1.667%; ClpP1P2: -5.871%; Toxoplasma: -4.091%; PfKRS1: 2.208%
* CN(C)c1ncc(I)c(C2CCCN2C)n1 (stereo not drawn) | TcHisRS: 2.682%; ClpP1P2: 7.62%; PfKRS1: -0.5116%
* CC(C)NC(=O)N1CCC2(CCCO2)C1 (stereo not drawn) | Leishmania in macrophages: -4.443%; TcHisRS: 4.598%; ClpP1P2: 6.716%; Toxoplasma: 5.678%; PfKRS1: -0.3771%
* Cn1cc(N2CC3(CCN(CC4CC4)CC3)OCC2=O)cn1.O=C(O)C(F)(F)F | Leishmania in macrophages: 9.616%; Toxoplasma: -6.807%
* O=C(NCC(O)CO)Nc1cc(Br)ccc1F (stereo not drawn) | Leishmania in macrophages: 4.523%; TcHisRS: 6.383%; ClpP1P2: -2.075%; Toxoplasma: -5.243%; PfKRS1: 4.936%
* Cc1cc(-c2cnn(CCNC(=O)c3cccnc3)c2C2CC2)on1.Cl | Leishmania in macrophages: -2.527%; Toxoplasma: -7.88%
* Cc1ccc(C(=O)N2CCCN(Cc3cccs3)CC2)c(=O)[nH]1 | Leishmania in macrophages: 7.095%; TcHisRS: 7.918%; ClpP1P2: -12.73%; Toxoplasma: -7.903%; PfKRS1: -0.4083%
* CCOc1ccc(C(=O)CCC(=O)NCc2csc(N)n2)cc1C | Leishmania in macrophages: -6.547%; TcHisRS: 1.786%; ClpP1P2: -2.925%; Toxoplasma: -4.697%; PfKRS1: 2.595%
* c1ccc2oc(CN3CCOC(Cn4cccn4)C3)nc2c1 (stereo not drawn) | Leishmania in macrophages: 20.59%; TcHisRS: 2.624%; ClpP1P2: -45.34%; Toxoplasma: 7.301%; PfKRS1: 2.005%
* CC(C)(C)CNC(=O)c1ccc(C(=O)O)cc1 | Leishmania in macrophages: 40.51%; TcHisRS: 9.845%; ClpP1P2: 1.36%; Toxoplasma: 7.422%; PfKRS1: 6.12%
* Cc1n[nH]c(C)c1C1CCCN1C(=O)NCC(=O)Nc1ccccc1 (stereo not drawn) | Leishmania in macrophages: -14.78%; TcHisRS: 0%; ClpP1P2: -7.759%; Toxoplasma: -26.24%; PfKRS1: 5.237%
* c1cc2c(cc1OC[C@@H]1CCCN3CCCC[C@H]13)OCCO2 | TcHisRS: 5.6%; ClpP1P2: 3.896%; PfKRS1: 3.073%
* Cn1nc(CNC(=O)c2ccc3nsnc3c2)c2c1CCOC2 | Leishmania in macrophages: 0.9549%; TcHisRS: 5%; ClpP1P2: -8.1%; Toxoplasma: 0.4297%; PfKRS1: -0.3852%
* O=C1CCC2(CCN(Cc3ccc(F)cc3)CC2)N1Cc1ccccc1 | TcHisRS: -15.04%; ClpP1P2: 12.32%; PfKRS1: 6.958%
* Cc1nc(N2CCCC2)ncc1-c1cc(O)nc(N2CCCCC2)n1 | Leishmania in macrophages: -14.51%; TcHisRS: 3.478%; ClpP1P2: -1.364%; Toxoplasma: 6.397%; PfKRS1: 1.399%
* O=C(O)C(F)(F)F.[H][C@]12C[C@H](C(=O)NCC3CC3)N(C(C)=O)[C@@]1([H])CN(Cc1nccs1)C2 | Leishmania in macrophages: 21.18%; Toxoplasma: -27.86%
* O=C(O)C(F)(F)F.[H][C@]12CCCN(Cc3ccoc3)[C@@]1([H])CN(C(=O)c1ccco1)C2 | Leishmania in macrophages: 21.99%; Toxoplasma: 4.34%
* O=C1NCC(C(=O)Nc2ccc(=O)n(Cc3ccccc3Cl)c2)N1 (stereo not drawn) | Leishmania in macrophages: -42.11%; TcHisRS: 2.439%; ClpP1P2: -4.057%; Toxoplasma: -8.854%; PfKRS1: 6.319%
* CC(C)c1noc(C2CCN(C(=O)c3cccs3)CC2)n1 | Leishmania in macrophages: 8.404%; TcHisRS: -2.632%; ClpP1P2: 7.775%; Toxoplasma: 13.75%; PfKRS1: 3.416%
* CCn1nc(C)c(CNCCn2cc(C)cn2)c1C | Leishmania in macrophages: -3.258%; TcHisRS: 2.439%; ClpP1P2: -1.865%; Toxoplasma: -3.437%; PfKRS1: 1.604%

Repeated from the top, 2 entries:

| SMILES | Leishmania in macrophages | TcHisRS | ClpP1P2 | Toxoplasma | PfKRS1 |
|---|---|---|---|---|---|
| `Cc1nn(C)c(C)c1CNC(=O)CCn1ncc2c(Cl)cccc21` | -28.96% | 6.087% | -16.07% | -3.434% | 2.292% |
| `[H][C@@]12COC[C@@H](C(=O)N3CCOCC3)[C@]1([H])CN(C1CCCCC1)C2` | 39.59% | - | - | -25.88% | - |

The values are deposited in ChEMBL (CHEMBL3988442, “University of Dundee, Small-Polar-MMV Screening Library” (2021)).